Results taken from PubChem BioAssay AID1347076 (National Center for Advancing Translational Sciences (NCATS), 2019).
Several values for one entry are separate records, joined by “and”; a condition that tells them apart may be missing. Equal values may be shown once. The campaign covered roughly 400,000 compounds. About 13,000 (3.2%) were called active. Inconclusive means that the source gave no clear call. Such entries were picked first, then a sample of the others. Calls follow the shape of the dose curve; as a rule, active = well fitted cell-killing curve with a large enough effect; inconclusive = small, poorly fitted or top-dose-only effect, or effect the other way; inactive = flat fitted curve, though single readings scatter. Potencies beside an inconclusive call are fits to weak or partial responses and may not hold up.

test: qHTS assay for MDR1-selective chemotherapeutics: Primary screen using the drug-selected MDR subline cells KB-V1; details: KB-V1 MDR cells viability, CellTiter-Glo, 72 h; activity change, negative = cytotoxicity: at 46.1 µM (top of the series); also: nearly all actives have a fitted effect of over 60% in size
Summary of the method: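 KB-V1, DMEM (no phenol red) + 10% FBS; cpd pin-transferred, titration series; 72 h, 37 degrees C; CellTiter-Glo, luminescence. Data normalized, curve-fit.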
% is scaled to controls: 0 for no effect and ±100 for the full control effect; potency is read from the fitted curve at half-maximal effect.

| SMILES | Potency | activity change, negative = cytotoxicity |
| --- | --- | --- |
| O=c1cc(CSc2ccc(S(=O)(=O)N3CCCCC3)cn2)nc2sccn12 | inconclusive: 7.31 µM [cytotoxic, partial curve, poor fit] | – |
| C=CCn1c(C(C)C)nc2ccccc21 | inconclusive: 29.1 µM [rising, single point] | – |
| CCOC(=O)c1cc2n(c1C)-c1ccccc1C2=O | inconclusive: 23.1 µM [cytotoxic, single point] | – |
| O=C(Cn1cc(S(=O)(=O)c2ccccc2)c(=O)c2cc3c(cc21)OCO3)Nc1ccccc1 | – | inactive: 3.69% |
| COc1ccc(NS(=O)(=O)Cc2ccccc2)cc1OC | – | inactive: 2.2% |
| Cc1cc(C)c(C)c(S(=O)(=O)N2C(=S)NC(=O)C2C(C)C)c1C (configuration not stated) | inconclusive: 29.1 µM [cytotoxic, single point] | – |
| Cn1cc(S(=O)(=O)N2CCCCC2)cc1C(=O)Nc1ccc(OC(F)(F)F)cc1 | – | inactive: 8.53% |
| C/C(=N\Nc1nc2ccccc2[nH]1)c1ccc(N2CCOCC2)cc1 | inconclusive: 7.31 µM [cytotoxic, partial curve] | – |
| COC(=O)C1(C)COP(=O)(NC23CC4CC(CC(C4)C2)C3)OC1 (configuration not stated) | active: 18.4 µM | – |
| Cc1[nH]c2ccc(C(=O)NCCCN(C)C3CCCCC3)cc2c1C | – | inactive: -1.31% |
| CC1(C)CC(NC(=O)c2ccc(Cl)cc2Cl)CC(C)(C)N1 | inconclusive: 29.1 µM [rising, single point] | – |
| CC(=O)C[C@@H](O)CC(=O)[C@@H]1OC(=O)CCCCCCc2ccccc21 | inconclusive: 29.1 µM [cytotoxic, single point] | – |
| CCOc1cc(/C=C2\C(=O)ON=C2C)ccc1OCc1ccccc1 | inconclusive: 18.4 µM [cytotoxic, single point] | – |
| CC(C)(O)/C=C/C(=O)[C@](C)(O)C1[C@H](O)C[C@@]2(C)C3CC=C4C(C=C(O[C@@H]5O[C@H](CO)[C@@H](O)[C@H](O)[C@H]5O)C(=O)C4(C)C)[C@]3(C)C(=O)C[C@]12C (some centres not stated) | inconclusive: 10.3 µM [rising, partial curve, poor fit] | – |
| COc1ccc(C(C(=O)Nc2ccc(F)cc2)N2CCN(CC(=O)N3CCCC3)CC2)cc1 (configuration not stated) | – | inactive: -21.4% |
| CCCCCCCCN1C(=O)[C@H](CC(=O)NCCCOCCCC)C[C@@]2(C(=O)OC)CC(C)(C)CC=C12 | active: 23.1 µM | – |
| COC(=O)C(Cc1ccccc1)NC(=O)CCCC(=O)NCc1cccc(OC)c1 (configuration not stated) | – | inactive: 3.55% |
| CN(C)CCCNC(=O)C[C@H]1C[C@H](C(=O)N2CCCCC2)[C@@]2(C)c3[nH]c4ccc(Cl)cc4c3CCN2C1=O | – | inactive: 0.0002% |
| CC(=O)c1cccc(NC(=O)c2c(C)nn(-c3ccccc3)c2Cl)c1 | inconclusive: 29.1 µM [cytotoxic, single point] | – |
| O=C(Nc1ccc(Cl)c(Cl)c1)O/N=C/c1ccncc1 | – | inactive: -20.6% |
| CCC(=O)Nc1cccc(SC)c1 | – | inactive: 0% |

| SMILES | Potency | activity change, negative = cytotoxicity |
| --- | --- | --- |
| COc1ccc2c(CC(=O)Nc3nccs3)coc2c1 | inconclusive: 29.1 µM [cytotoxic, single point] | – |
| O=C(CCc1nnc(COc2ccccc2)o1)NCc1ccc(Cl)s1 | inconclusive: 29.1 µM [rising, partial curve, poor fit] | – |
| Cc1ccc(-n2cc(CNCC3CC(=O)N(C4CC4)C3)c(-c3cccc(C)c3)n2)cc1 (configuration not stated) | inconclusive: 23.1 µM [cytotoxic, partial curve, poor fit] | – |
| CCOC(=O)c1cc(NC(=O)Nc2nc3ccccc3s2)c(C)nc1C | inconclusive: 29.1 µM [rising, single point] | – |
| CCOc1ccc(S(=O)(=O)NCc2ccncc2)cc1NC(=O)c1ccccc1 | inconclusive: 6.51 µM [cytotoxic, partial curve] | – |
| CCc1ccc2oc(-c3ccc(C)c(NC(=O)c4ccc(C#N)cc4F)c3)nc2c1 | inconclusive: 5.17 µM [rising, partial curve] | – |
| Nc1nonc1-c1nc2ccccc2n1CC(=O)Nc1cccc(Cl)c1Cl | inconclusive: 16.4 µM [cytotoxic, single point] | – |
| CCOC(=O)C1CCCN(S(=O)(=O)c2ccc3ccccc3c2)C1 (configuration not stated) | – | inactive: -10.1% |
| CCn1ccnc1CN(C)Cc1cn(-c2cccc(C)c2)nc1-c1cccc(F)c1 | inconclusive: 32.6 µM [cytotoxic, partial curve, poor fit] | – |
| CCOC(=O)c1cccc(C2=CC(=O)C[C@H](c3ccc(OC)cc3)C2)c1 | – | inactive: 13.6% |
| COc1ccc(C(=O)N2CCc3cc(OC)c(OC)cc3C2c2ccc(OC)c(OC)c2)cc1OC (configuration not stated) | – | inactive: -1.68% |
| CN(Cc1ccco1)S(=O)(=O)c1nnc(NC(=O)c2ccccc2)s1 | inconclusive: 20.6 µM [rising, single point] | – |
| CC1CC(C)CN(C(=S)SCc2nc(N)nc(Nc3ccccc3)n2)C1 (configuration not stated) | inconclusive: 20.6 µM [cytotoxic, single point] | – |
| COc1ccccc1N(CC(=O)Nc1cc(C)cc(C)c1)S(C)(=O)=O | inconclusive: 23.1 µM [cytotoxic, partial curve, poor fit] | – |
| COc1ccc(-c2nc3c(c(=O)n(C)c(=O)n3C)n2CC2CC(c3ccccc3)=NO2)cc1OC (configuration not stated) | active: 5.8 µM | – |
| O=C(C1=C[C@@H](c2ccccc2)C[C@@H](OCc2ccc(CO)cc2)O1)N1CCN(Cc2ccc3c(c2)OCO3)CC1 | inconclusive: 18.4 µM [cytotoxic, partial curve, poor fit] | – |
| NC(=O)c1ccc(C2SCC(=O)N2CCc2ccccc2)cc1 (configuration not stated) | inconclusive: 13 µM [cytotoxic, partial curve] | – |
| CCc1ccc(NS(=O)(=O)c2c(-c3ccccc3)csc2C(=O)OC)cc1 | inconclusive: 20.6 µM [cytotoxic, single point] | – |
| CCCCNc1c(-c2ccc(Sc3ccc(OC)cc3)cc2)nc2cc(C)ccn12 | – | inactive: -8.88% |
| CCN(CC)C(=O)COc1ccc(-c2ccccc2)cc1 | inconclusive: 5.17 µM [cytotoxic, partial curve, poor fit] | – |
| c1ccc(-c2cn3c4c(sc3n2)CCCC4)cc1 | inconclusive: 23.1 µM [cytotoxic, single point] and inconclusive: 20.6 µM [cytotoxic, single point] | – |

Nine entries out of the list, sorted by molecular weight, smallest number first.

| SMILES | Potency | activity change, negative = cytotoxicity |
| --- | --- | --- |
| NC(=O)c1ccc(C2SCC(=O)N2CCc2ccccc2)cc1 (configuration not stated) | inconclusive: 13 µM [cytotoxic, partial curve] | – |
| Cc1[nH]c2ccc(C(=O)NCCCN(C)C3CCCCC3)cc2c1C | – | inactive: -1.31% |
| CCOC(=O)c1cc(NC(=O)Nc2nc3ccccc3s2)c(C)nc1C | inconclusive: 29.1 µM [rising, single point] | – |
| CN(Cc1ccco1)S(=O)(=O)c1nnc(NC(=O)c2ccccc2)s1 | inconclusive: 20.6 µM [rising, single point] | – |
| CCc1ccc(NS(=O)(=O)c2c(-c3ccccc3)csc2C(=O)OC)cc1 | inconclusive: 20.6 µM [cytotoxic, single point] | – |
| Nc1nonc1-c1nc2ccccc2n1CC(=O)Nc1cccc(Cl)c1Cl | inconclusive: 16.4 µM [cytotoxic, single point] | – |
| CCCCNc1c(-c2ccc(Sc3ccc(OC)cc3)cc2)nc2cc(C)ccn12 | – | inactive: -8.88% |
| COc1ccc(C(C(=O)Nc2ccc(F)cc2)N2CCN(CC(=O)N3CCCC3)CC2)cc1 (configuration not stated) | – | inactive: -21.4% |
| CN(C)CCCNC(=O)C[C@H]1C[C@H](C(=O)N2CCCCC2)[C@@]2(C)c3[nH]c4ccc(Cl)cc4c3CCN2C1=O | – | inactive: 0.0002% |
